A short description of the data set: FRET and time-resolved fluorescence, SP1 with homologous Aβ sequence. Format: binding. The settings on record: for kf: kf = Φ/τ; for knr: knr = (1-Φ)/τ; for quantum yield Φf / fluorescence lifetime τ: λex 290 nm, 20 µM; for fluorescence lifetime τ: PBS pH 7.4, 3% DMSO.

Consider “GLVFFAW-NH2 [LP1A, fluorescently labeled homologous Aβ fragment containing tryptophan, FRET donor]”, for which, where the note is “λem 355 nm”, the kf is 0.126, the knr was found to be 0.399, the “quantum yield Φf” value is reported as 0.241 and the “fluorescence lifetime τ” value is recorded as 1.90 ns.
For the substance “GLVFFAX-NH2 [LP1B, fluorescently labeled homologous Aβ fragment containing dansyl, FRET acceptor]”, for the setting “λem 495 nm”, the kf was determined as 0.005, the knr was 0.241, the “quantum yield Φf” value worked out at 0.021 and the “fluorescence lifetime τ” value stood at 4.06 ns.

The record behind these values is article PMC8179358, “An explicitly designed paratope of amyloid-β prevents neuronal apoptosis in vitro and hippocampal damage in rat brain” (Chemical Science, 2020).
